These are yes or no findings as the source states them, for the method shown. Some entries that bind do so weakly or less than the wild type.
Target: T1, yeast smc3AAA (Smc3 R665A K668A R669A, subunit of the purified DDAAA mutant tetramer) (S. cerevisiae) (UniProt P47037)
T1 sequence: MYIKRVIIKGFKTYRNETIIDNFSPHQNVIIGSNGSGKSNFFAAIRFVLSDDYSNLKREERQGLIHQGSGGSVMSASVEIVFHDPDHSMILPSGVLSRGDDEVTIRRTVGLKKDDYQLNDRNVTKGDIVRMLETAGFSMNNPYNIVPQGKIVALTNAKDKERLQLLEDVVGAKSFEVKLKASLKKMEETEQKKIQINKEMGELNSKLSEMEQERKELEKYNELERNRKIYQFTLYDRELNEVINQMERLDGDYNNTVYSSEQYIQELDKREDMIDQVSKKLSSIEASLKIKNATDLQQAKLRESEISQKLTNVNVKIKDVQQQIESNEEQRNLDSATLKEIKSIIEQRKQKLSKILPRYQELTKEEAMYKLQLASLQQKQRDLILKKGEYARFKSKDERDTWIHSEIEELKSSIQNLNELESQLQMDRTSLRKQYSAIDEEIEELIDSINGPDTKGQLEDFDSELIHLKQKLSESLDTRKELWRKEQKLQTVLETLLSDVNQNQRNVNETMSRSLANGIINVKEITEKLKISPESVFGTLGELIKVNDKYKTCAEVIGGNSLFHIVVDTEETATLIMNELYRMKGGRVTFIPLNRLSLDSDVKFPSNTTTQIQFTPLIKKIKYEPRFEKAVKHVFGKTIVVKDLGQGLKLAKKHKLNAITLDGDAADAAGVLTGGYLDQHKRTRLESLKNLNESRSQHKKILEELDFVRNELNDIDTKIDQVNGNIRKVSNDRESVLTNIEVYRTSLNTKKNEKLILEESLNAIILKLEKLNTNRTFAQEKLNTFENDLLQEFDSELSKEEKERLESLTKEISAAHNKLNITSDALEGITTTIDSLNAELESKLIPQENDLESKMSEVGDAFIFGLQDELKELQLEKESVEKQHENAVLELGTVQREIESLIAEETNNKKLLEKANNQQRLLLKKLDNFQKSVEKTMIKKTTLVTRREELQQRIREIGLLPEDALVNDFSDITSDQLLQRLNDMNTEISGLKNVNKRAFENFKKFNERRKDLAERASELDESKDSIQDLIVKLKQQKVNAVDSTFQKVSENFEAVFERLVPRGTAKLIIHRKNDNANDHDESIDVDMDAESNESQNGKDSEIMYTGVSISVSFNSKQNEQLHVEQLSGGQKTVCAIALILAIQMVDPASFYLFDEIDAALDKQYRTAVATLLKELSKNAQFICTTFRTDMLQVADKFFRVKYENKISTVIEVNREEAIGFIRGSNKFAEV
Assay: co-purification

binding: binds
B1: yeast smc1DD (Smc1 K554D K661D, subunit of the purified DDAAA mutant tetramer) (protein, UniProt P32908 1-1225)
chain: MGRLVGLELSNFKSYRGVTKVGFGESNFTSIIGPNGSGKSNMMDAISFVLGVRSNHLRSNILKDLIYRGVLNDENSDDYDNEGAASSNPQSAYVKAFYQKGNKLVELMRIISRNGDTSYKIDGKTVSYKDYSIFLENENILIKAKNFLVFQGDVEQIAAQSPVELSRMFEEVSGSIQYKKEYEELKEKIEKLSKSATESIKNRRRIHGELKTYKEGINKNEEYRKQLDKKNELQKFQALWQLYHLEQQKEELTDKLSALNSEISSLKGKINNEMKSLQRSKSSFVKESAVISKQKSKLDYIFKDKEKLVSDLRLIKVPQQAAGKRISHIEKRIESLQKDLQRQKTYVERFETQLKVVTRSKEAFEEEIKQSARNYDKFKLNENDLKTYNCLHEKYLTEGGSILEEKIAVLNNDKREIQEELERFNKRADISKRRITEELSITGEKLDTQLNDLRVSLNEKNALHTERLHELKKLQSDIESANNQEYDLNFKLRETLVKIDDLSANQRETMKERKLRENIAMLKRFFPGVKGLVHDLCHPKKEKYGLAVSTILGDNFDSVIVENLTVAQECIAFLKKQRAGTASFIPLDTIETELPTLSLPDSQDYILSINAIDYEPEYEKAMQYVCGDSIICNTLNIAKDLKWKKGIRGKLVTIEGALIHDAGLMTGGISGDANNRWDKEEYQSLMSLKDKLLIQIDELSNGQRSNSIRAREVENSVSLLNSDIANLRTQVTQQKRSLDENRLEIKYHNDLIEKEIQPKITELKKKLDDLENTKDNLVKEKEALQNNIFKEFTSKIGFTIKEYENHSGELMRQQSKELQQLQKQILTVENKLQFETDRLSTTQRRYEKAQKDLENAQVEMKSLEEQEYAIEMKIGSIESKLEEHKNHLDELQKKFVTKQSELNSSEDILEDMNSNLQVLKRERDGIKEDIEKFDLERVTALKNCKISNINIPISSETTIDDLPISSTDNEAITISNSIDINYKGLPKKYKENNTDSARKELEQKIHEVEEILNELQPNARALERYDEAEGRFEVINNETEQLKAEEKKILNQFLKIKKKRKELFEKTFDYVSDHLDAIYRELTKNPNSNVELAGGNASLTIEDEDEPFNAGIKYHATPPLKRFKDMEYLSGGEKTVAALALLFAINSYQPSPFFVLDEVDAALDITNVQRIAAYIRRHRNPDLQFIVISLKNTMFEKSDALVGVYRQQQENSSKIITLDLSNYAE
